The text below walks through data of PMC10147665.

These are yes or no findings as the source states them, for the method shown. Binding seen in cells or lysates may run through a third protein. Some entries that bind do so weakly or less than the wild type. Sequences can lack the tags named with a protein.

The target of test [1] is T1, FLAG-tagged PID1 (Phosphotyrosine interaction domain-containing protein 1) (human) (UniProt Q7Z2X4).
T1 sequence: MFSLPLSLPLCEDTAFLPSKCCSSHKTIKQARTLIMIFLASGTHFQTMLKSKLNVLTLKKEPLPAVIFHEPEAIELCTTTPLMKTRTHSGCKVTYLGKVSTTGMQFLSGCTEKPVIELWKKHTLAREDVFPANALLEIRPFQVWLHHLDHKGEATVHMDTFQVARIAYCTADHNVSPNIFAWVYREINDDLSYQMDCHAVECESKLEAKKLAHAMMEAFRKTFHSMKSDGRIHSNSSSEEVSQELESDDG
The test can be described thus: co-IP; FLAG-tagged PID1 immunoprecipitated from RIPA lysates, blot for endogenous PDPK1; cells with or without growth factors; antibody 2 h, Protein A/G agarose 12 h, 4 °C.

The target of test [2] is T1, FLAG-tagged PID1 (Phosphotyrosine interaction domain-containing protein 1) (human). Nature of the test: co-IP; as a1, with alkaline phosphatase (ALP) treatment.

B1: endogenous PDPK1 (protein, UniProt O15530 1-556)
chain: MARTTSQLYDAVPIQSSVVLCSCPSPSMVRTQTESSTPPGIPGGSRQGPAMDGTAAEPRPGAGSLQHAQPPPQPRKKRPEDFKFGKILGEGSFSTVVLARELATSREYAIKILEKRHIIKENKVPYVTRERDVMSRLDHPFFVKLYFTFQDDEKLYFGLSYAKNGELLKYIRKIGSFDETCTRFYTAEIVSALEYLHGKGIIHRDLKPENILLNEDMHIQITDFGTAKVLSPESKQARANSFVGTAQYVSPELLTEKSACKSSDLWALGCIIYQLVAGLPPFRAGNEYLIFQKIIKLEYDFPEKFFPKARDLVEKLLVLDATKRLGCEEMEGYGPLKAHPFFESVTWENLHQQTPPKLTAYLPAMSEDDEDCYGNYDNLLSQFGCMQVSSSSSSHSLSASDTGLPQRSGSNIEQYIHDLDSNSFELDLQFSEDEKRLLLEKQAGGNPWHQFVENNLILKMGPVDKRKGLFARRRQLLLTEGPHLYYVDPVNKVLKGEIPWSQELRPEAKNFKTFFVHTPNRTYYLMDPSGNAHKWCRKIQEVWRQRYQSHPDAAVQ
For B1, the binding result in test [1] is listed as “binds”; in test [2] it was “binds weakly”.
